Laboratory results taken from the supplement of paper PMC10849652.
Some of the results follow. Residues, ends and D or L forms follow the SMILES beside them. *: point of attachment. Cbz = O=C(OCc1ccccc1)*

Protein sequences, listed by entry. Tags and fused reporters are not part of them. Lines headed by an entry give the natural chain unless they say otherwise; changes in a name come on top.
UniProt O00148, whole entry, looked up: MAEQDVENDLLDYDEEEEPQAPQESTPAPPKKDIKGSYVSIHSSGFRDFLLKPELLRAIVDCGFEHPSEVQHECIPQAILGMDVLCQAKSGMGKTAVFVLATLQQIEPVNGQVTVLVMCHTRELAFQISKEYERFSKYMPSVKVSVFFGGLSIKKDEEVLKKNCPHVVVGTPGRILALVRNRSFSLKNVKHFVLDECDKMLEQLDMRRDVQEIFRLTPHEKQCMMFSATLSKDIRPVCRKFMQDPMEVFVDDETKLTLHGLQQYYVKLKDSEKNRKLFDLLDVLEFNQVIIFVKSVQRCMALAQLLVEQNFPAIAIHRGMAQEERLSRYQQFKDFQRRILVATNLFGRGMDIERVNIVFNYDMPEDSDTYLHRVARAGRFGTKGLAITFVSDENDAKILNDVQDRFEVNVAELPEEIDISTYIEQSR
UniProt Q8IX18: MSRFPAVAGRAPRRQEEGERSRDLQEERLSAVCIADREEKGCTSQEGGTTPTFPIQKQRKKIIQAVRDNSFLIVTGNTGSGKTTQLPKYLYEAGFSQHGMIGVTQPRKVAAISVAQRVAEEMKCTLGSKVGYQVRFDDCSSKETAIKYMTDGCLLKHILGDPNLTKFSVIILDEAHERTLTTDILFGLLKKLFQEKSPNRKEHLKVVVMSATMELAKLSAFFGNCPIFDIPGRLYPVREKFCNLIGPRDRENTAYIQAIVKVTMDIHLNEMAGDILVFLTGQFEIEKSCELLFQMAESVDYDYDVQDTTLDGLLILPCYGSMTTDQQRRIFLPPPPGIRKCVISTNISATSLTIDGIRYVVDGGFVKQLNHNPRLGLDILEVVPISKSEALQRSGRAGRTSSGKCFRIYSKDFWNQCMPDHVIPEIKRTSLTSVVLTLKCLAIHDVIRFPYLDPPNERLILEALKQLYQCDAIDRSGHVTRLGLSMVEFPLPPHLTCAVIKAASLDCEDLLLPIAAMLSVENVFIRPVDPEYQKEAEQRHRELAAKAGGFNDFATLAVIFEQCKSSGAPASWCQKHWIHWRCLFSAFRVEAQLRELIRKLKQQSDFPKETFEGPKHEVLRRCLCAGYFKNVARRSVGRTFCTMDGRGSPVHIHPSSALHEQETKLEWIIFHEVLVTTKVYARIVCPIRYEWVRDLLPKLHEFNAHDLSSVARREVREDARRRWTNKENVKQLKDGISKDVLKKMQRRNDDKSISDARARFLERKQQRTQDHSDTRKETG
UniProt O15121: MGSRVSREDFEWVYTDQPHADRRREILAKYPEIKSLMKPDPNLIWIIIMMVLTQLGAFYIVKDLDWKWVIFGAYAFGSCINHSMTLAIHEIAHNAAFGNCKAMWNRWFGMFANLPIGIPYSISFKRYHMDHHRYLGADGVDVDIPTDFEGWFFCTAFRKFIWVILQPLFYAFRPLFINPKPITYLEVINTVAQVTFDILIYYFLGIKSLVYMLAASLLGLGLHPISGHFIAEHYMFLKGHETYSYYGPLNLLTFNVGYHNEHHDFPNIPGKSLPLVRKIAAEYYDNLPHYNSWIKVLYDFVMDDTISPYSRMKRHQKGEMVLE
UniProt Q16531, whole entry, looked up: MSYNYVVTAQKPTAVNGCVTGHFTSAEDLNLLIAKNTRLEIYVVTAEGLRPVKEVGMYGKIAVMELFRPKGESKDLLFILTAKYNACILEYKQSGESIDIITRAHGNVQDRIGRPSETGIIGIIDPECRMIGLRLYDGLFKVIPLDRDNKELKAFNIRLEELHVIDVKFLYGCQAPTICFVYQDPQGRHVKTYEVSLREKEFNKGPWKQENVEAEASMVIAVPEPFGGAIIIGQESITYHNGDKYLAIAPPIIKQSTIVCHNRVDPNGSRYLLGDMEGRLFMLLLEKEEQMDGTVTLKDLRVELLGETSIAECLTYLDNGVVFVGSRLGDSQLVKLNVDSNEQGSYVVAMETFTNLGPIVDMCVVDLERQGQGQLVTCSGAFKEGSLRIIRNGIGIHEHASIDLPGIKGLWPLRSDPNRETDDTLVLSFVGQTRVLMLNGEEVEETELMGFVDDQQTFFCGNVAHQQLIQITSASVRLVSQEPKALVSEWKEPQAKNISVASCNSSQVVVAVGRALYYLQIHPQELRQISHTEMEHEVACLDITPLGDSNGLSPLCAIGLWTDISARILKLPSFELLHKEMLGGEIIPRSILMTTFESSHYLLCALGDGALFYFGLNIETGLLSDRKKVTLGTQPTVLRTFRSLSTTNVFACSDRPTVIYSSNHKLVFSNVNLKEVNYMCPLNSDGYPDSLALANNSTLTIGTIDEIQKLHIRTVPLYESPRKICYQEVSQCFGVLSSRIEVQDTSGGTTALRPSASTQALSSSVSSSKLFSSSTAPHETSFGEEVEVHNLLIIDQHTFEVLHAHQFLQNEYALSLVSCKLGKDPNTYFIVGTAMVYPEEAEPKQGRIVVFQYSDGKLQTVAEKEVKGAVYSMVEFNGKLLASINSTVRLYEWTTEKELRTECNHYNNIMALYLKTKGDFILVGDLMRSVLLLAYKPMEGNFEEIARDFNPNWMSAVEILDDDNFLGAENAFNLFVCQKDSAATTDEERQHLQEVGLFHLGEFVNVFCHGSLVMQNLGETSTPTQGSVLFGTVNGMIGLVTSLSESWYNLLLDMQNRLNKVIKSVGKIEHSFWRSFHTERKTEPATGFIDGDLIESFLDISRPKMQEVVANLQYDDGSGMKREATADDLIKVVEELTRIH
UniProt P17844: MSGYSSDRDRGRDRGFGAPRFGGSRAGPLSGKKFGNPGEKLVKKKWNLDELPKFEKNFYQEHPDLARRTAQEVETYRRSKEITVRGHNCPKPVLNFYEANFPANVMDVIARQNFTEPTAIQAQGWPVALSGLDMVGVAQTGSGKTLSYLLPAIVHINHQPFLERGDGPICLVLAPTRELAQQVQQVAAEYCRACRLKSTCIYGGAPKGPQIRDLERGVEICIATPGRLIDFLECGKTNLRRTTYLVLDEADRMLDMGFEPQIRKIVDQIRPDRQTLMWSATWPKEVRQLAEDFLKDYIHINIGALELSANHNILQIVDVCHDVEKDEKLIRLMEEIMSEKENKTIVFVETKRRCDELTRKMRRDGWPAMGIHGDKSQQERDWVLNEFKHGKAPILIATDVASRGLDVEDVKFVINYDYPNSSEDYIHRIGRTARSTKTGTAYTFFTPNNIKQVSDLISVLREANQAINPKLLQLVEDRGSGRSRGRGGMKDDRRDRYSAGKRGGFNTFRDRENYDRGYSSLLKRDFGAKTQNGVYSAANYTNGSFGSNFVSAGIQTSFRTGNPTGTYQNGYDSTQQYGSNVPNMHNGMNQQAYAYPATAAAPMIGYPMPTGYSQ
UniProt Q9NQI0, whole entry, looked up: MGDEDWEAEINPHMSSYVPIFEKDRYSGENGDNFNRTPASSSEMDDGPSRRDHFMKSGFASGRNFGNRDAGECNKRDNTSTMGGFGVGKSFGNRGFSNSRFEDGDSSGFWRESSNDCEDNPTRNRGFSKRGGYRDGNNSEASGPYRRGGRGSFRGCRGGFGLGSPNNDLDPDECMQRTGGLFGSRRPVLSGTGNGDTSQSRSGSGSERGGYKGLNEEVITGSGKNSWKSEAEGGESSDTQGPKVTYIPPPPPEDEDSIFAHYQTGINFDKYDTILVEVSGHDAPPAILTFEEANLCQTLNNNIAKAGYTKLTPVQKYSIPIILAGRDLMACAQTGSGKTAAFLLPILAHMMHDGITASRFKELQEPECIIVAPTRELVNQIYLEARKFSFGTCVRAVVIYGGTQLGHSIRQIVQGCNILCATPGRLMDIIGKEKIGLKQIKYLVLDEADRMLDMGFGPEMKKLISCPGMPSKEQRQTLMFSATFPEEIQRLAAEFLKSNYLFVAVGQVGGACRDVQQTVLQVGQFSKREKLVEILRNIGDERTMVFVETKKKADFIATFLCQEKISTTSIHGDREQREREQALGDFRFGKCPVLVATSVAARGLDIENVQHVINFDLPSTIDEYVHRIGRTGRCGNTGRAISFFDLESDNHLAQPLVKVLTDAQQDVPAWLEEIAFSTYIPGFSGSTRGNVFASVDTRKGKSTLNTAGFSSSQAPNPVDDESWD
UniProt Q8IY37: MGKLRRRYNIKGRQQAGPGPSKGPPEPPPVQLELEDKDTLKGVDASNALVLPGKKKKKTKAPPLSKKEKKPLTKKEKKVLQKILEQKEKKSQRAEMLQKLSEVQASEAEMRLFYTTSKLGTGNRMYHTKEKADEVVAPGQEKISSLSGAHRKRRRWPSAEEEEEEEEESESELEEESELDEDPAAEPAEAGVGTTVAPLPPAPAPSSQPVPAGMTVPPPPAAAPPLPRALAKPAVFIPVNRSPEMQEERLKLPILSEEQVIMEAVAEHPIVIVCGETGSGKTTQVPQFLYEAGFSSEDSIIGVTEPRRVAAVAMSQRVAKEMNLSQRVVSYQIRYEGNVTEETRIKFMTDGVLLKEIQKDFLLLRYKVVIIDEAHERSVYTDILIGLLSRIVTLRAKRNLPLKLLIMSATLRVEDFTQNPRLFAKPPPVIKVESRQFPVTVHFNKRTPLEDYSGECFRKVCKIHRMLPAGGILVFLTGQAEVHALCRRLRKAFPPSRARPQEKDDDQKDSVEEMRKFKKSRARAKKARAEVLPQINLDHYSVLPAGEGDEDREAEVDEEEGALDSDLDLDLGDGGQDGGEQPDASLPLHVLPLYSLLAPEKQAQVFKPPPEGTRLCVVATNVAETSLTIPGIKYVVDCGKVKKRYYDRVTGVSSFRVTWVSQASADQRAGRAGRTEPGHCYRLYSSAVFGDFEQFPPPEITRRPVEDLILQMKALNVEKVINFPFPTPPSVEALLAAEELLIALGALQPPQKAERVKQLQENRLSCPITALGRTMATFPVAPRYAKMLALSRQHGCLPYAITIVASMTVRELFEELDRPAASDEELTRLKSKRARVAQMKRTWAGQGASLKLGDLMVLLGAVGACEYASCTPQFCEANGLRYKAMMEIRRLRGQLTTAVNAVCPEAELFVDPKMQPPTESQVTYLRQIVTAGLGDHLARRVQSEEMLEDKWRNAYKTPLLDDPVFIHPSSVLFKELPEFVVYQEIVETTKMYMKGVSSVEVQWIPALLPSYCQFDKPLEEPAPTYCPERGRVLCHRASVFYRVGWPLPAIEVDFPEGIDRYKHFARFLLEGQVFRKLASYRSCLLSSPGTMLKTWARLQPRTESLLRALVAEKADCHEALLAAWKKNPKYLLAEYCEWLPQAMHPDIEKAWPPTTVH
UniProt Q96FC9: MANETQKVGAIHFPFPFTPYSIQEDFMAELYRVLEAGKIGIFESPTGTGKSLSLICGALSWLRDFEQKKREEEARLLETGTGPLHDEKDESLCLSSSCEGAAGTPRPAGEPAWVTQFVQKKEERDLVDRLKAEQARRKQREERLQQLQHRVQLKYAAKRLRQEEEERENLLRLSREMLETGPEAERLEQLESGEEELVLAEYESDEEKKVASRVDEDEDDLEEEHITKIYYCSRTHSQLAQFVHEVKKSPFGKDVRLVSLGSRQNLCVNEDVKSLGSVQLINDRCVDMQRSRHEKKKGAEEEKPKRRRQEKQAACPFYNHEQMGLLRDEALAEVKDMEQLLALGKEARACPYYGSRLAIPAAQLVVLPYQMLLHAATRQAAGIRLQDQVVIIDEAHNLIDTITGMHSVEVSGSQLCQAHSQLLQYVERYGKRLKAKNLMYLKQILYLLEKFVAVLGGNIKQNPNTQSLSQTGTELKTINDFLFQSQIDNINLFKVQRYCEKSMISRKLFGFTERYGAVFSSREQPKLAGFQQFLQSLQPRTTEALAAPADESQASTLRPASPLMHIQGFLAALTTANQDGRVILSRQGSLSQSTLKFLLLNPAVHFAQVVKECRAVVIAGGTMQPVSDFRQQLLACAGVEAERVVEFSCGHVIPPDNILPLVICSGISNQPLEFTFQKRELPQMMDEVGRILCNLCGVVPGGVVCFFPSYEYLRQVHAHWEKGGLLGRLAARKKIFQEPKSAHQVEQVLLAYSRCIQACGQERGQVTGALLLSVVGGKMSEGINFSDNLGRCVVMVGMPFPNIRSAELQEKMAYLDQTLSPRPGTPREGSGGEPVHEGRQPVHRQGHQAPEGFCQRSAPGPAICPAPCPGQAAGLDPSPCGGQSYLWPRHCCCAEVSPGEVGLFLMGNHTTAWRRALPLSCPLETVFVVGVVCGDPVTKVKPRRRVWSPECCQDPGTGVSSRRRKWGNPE
UniProt O94760: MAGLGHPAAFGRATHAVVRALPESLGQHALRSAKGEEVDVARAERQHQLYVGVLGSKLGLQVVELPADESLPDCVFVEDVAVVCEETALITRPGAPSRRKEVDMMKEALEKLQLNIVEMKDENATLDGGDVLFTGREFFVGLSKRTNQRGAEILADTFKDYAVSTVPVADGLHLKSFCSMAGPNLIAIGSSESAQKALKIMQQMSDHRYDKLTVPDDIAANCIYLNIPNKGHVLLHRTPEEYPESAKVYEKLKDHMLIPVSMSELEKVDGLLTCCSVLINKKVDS

Tests used:
Experiment in all cases: log2 fold change, soluble protein after heating vs DMSO (PISA); higher = thermal stabilisation; K562 cells, 10 uM, 30 min; active = over 0.2 and 3.5 SD of the protein, either way, in both replicates (recomputed)
[1] = compound: C#Cc1cccc(Nc2ncnc3cc(OCCOC)c(OCCOC)cc23)c1 [erlotinib]
How it was run: (§1)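 K562 cells at 2×10^6 cells/mL were given 10 μM compound for 30 min. Aliquots then went through 3 min of heating across 48°C-58°C, were pooled, and were extracted in PBS with 0.5% NP-40 at 4°C, and the supernatant after 21,000xg for 90 min was quantified by TMTpro 16plex LC-MS/MS with channel sums equalised. Thermal stability relative to control samples, from duplicates, is given as log2 fold change.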

[2] = compound: C/C(=N\NC(=O)C1=CC(=CC=C1)S(=O)(=O)N2CCOCC2)/C3=C(C=CC(=C3)Cl)O
How it was run: as §1

[3] = compound: C1=CC(=C(C=C1Cl)C2=NC3=NC=CN=C3C(=N2)NC4=CC=NC=C4)F
How it was run: as §1

[4] = compound: C1=CC(=CC=C1C2=NC3=C(N2)C=C(C=C3)C(=O)N)OC4=CC=C(C=C4)Cl
How it was run: as §1

[5] = compound: C1=CC2=C(C=CC(=C2)/C=C\3/C(=O)NC(=NCC4=CC=CS4)S3)N=C1
How it was run: as §1

[6] = compound: C1=CC2=NC=CN=C2C=C1/C=C/3\C(=O)NC(=O)S3
How it was run: as §1

[7] = compound: C1=CC=C(C=C1)C2=NC(=C(N2)C3=CC=NC=C3)C4=CC(=C(C=C4)Cl)O
How it was run: as §1

[8] = compound: C1=CC=C2C(=C1)C3=NNC4=CC=CC(=C43)C2=O
How it was run: as §1

[9] = compound: C1CCN(C1)C(=O)NC2=CC=CC(=C2)NC3=NC=C(C(=N3)NCCC4=CN=CN4)Br
How it was run: as §1

[10] = compound: C1CN(CCC1(CC2=CC=C(C=C2)Cl)N)C3=NC=NC4=C3C=CN4
How it was run: as §1

[11] = compound: C1COCCN1CCN2C3=CC=CC=C3N=C2NC(=O)C4=CC(=CC=C4)[N+](=O)[O-] [IRAK-1-4 Inhibitor I]
How it was run: as §1

[12] = compound: C=CC(=O)N1CCC[C@@H](n2nc(-c3ccc(Oc4ccccc4)cc3)c3c(N)ncnc32)C1 [ibrutinib]
How it was run: as §1

[13] = compound: CC(=O)c1cnc2ccc(-c3cc(Cl)c(O)c(Cl)c3)nc2c1N[C@H]1CC[C@H](CN(C)C)CC1
How it was run: as §1

[14] = compound: CC(C)(C)Cn1c(N)nc2ccc(-c3[nH]c(C(C)(C)C)nc3-c3ccc(F)cc3)nc21 [ralimetinib]
How it was run: as §1

[15] = compound: CC(C)(O)CC(=O)NCCn1ccc2ncnc(Nc3ccc(Oc4cccc(C(F)(F)F)c4)c(Cl)c3)c21
How it was run: as §1

[16] = compound: CC(C)C1=C2N=C(C=C(N2N=C1)NCC3=CC=CC=C3)NCCCCCCN
How it was run: as §1

[17] = compound: CC(C)C[C@@H](C=O)NC(=O)[C@H](CC(C)C)NC(=O)[C@H](CC(C)C)NC(=O)OCc1ccccc1
How it was run: as §1

[18] = compound: CC(C)N(C[C@H]1O[C@@H](n2cnc3c(N)ncnc32)[C@H](O)[C@@H]1O)[C@H]1C[C@@H](CCc2nc3cc(C(C)(C)C)ccc3[nH]2)C1 [pinometostat]
How it was run: as §1

[19] = compound: CC1=C(C2=C(C=C1)C(=O)C3=CC=CC=C3N2CCCN)C
How it was run: as §1

[20] = compound: CC1=C(C(CC(=O)N1)C2=CC=C(C=C2)C(F)(F)F)C(=O)NC3=C(C=C4C(=C3)C=NN4)F
How it was run: as §1

| Target | log2 fold change [1] | log2 fold change [2] | log2 fold change [3] | log2 fold change [4] | log2 fold change [5] | log2 fold change [6] | log2 fold change [7] | log2 fold change [8] | log2 fold change [9] | log2 fold change [10] | log2 fold change [11] | log2 fold change [12] | log2 fold change [13] | log2 fold change [14] | log2 fold change [15] | log2 fold change [16] | log2 fold change [17] | log2 fold change [18] | log2 fold change [19] | log2 fold change [20] |
| --- | --- | --- | --- | --- | --- | --- | --- | --- | --- | --- | --- | --- | --- | --- | --- | --- | --- | --- | --- | --- |
| DDX39A (UniProt O00148) | inactive: 0.038 | inactive: 0.027 | inactive: 0.031 | inactive: -0.03 | inactive: -0.026 | inactive: -0.068 | inactive: -0.026 | inactive: -0.059 | inactive: -0.007 | inactive: -0.019 | inactive: -0.034 | inactive: 0.099 | inactive: -0.224 | inactive: 0.003 | inactive: -0.142 | active: -0.327 | inactive: 0.042 | inactive: 0.075 | inactive: -0.28 | – |
| DHX40 (UniProt Q8IX18) | inactive: 0.019 | inactive: 0.05 | inactive: -0.008 | inactive: 0.071 | inactive: 0.044 | inactive: 0.092 | inactive: -0.046 | inactive: -0.034 | inactive: -0.071 | inactive: -0.038 | inactive: 0.047 | inactive: -0.04 | inactive: -0.069 | inactive: -0.036 | inactive: -0.07 | inactive: -0.075 | inactive: -0.038 | inactive: 0.047 | inactive: 0.096 | – |
| DHCR24 (UniProt Q15392) | inactive: 0.393 | inactive: 0.068 | inactive: -0.151 | inactive: 0.092 | inactive: 0.081 | inactive: -0.024 | inactive: 0.03 | inactive: -0.009 | inactive: -0.066 | inactive: -0.074 | inactive: -0.036 | inactive: 0.02 | inactive: 0.157 | inactive: 0.04 | inactive: 0.041 | active: 1.14 | inactive: 0.022 | inactive: 0.05 | inactive: 0.212 | – |
| DDX46 (UniProt Q7L014) | inactive: 0.053 | inactive: 0.23 | inactive: 0.134 | inactive: 0.081 | inactive: 0.034 | inactive: 0 | inactive: -0.023 | inactive: -0.022 | inactive: -0.062 | inactive: -0.141 | inactive: -0.113 | inactive: -0.034 | inactive: -0.299 | inactive: -0.095 | inactive: -0.18 | inactive: -0.034 | inactive: 0.026 | inactive: -0.066 | inactive: 0.152 | – |
| DDX27 (UniProt Q96GQ7) | inactive: 0.104 | inactive: -0.116 | inactive: -0.287 | inactive: 0.015 | inactive: 0.059 | – | inactive: -0.039 | inactive: 0.025 | inactive: -0.064 | inactive: -0.259 | inactive: -0.037 | – | inactive: 0.115 | inactive: 0.04 | inactive: 0.106 | inactive: -0.177 | inactive: 0.104 | inactive: 0.311 | inactive: -0.351 | – |
| DEGS1 (UniProt O15121) | inactive: -0.075 | inactive: 0.076 | inactive: -0.113 | inactive: 0.145 | inactive: 0.049 | inactive: -0.003 | – | inactive: -0.096 | inactive: -0.245 | inactive: 0.32 | – | inactive: 0.049 | inactive: 0.066 | – | inactive: 0.013 | inactive: 0.074 | – | – | inactive: 0.197 | – |
| DIAPH1 (UniProt O60610) | inactive: 0.072 | inactive: 0.058 | inactive: -0.109 | inactive: -0.037 | inactive: 0.031 | inactive: 0.04 | inactive: 0.067 | inactive: 0.006 | inactive: -0.072 | inactive: -0.235 | inactive: -0.128 | inactive: -0.061 | inactive: 0.072 | inactive: 0.168 | inactive: 0 | active: -0.373 | inactive: 0.07 | inactive: 0.213 | inactive: -0.08 | – |
| DDB1 (UniProt Q16531) | inactive: -0.03 | inactive: 0.006 | inactive: 0.009 | inactive: 0.022 | inactive: 0.003 | inactive: 0.014 | inactive: -0.019 | inactive: -0.032 | inactive: 0.018 | inactive: 0.04 | inactive: 0.038 | inactive: 0.026 | inactive: 0.002 | inactive: -0.053 | inactive: -0.008 | inactive: 0.071 | inactive: -0.017 | inactive: -0.03 | inactive: -0.001 | – |
| DDX5 (UniProt P17844) | inactive: 0.13 | inactive: 0.101 | inactive: 0.072 | inactive: 0 | inactive: -0.003 | inactive: -0.046 | inactive: 0.059 | inactive: -0.032 | inactive: -0.061 | inactive: -0.127 | inactive: -0.114 | inactive: 0.002 | active: -0.358 | inactive: -0.024 | inactive: -0.189 | inactive: -0.12 | inactive: 0.069 | inactive: 0.017 | inactive: 0.072 | – |
| DDX4 (UniProt Q9NQI0) | inactive: 0.576 | inactive: -0.071 | inactive: -0.23 | inactive: -0.056 | inactive: 0.006 | inactive: 0 | inactive: -0.305 | inactive: 0.006 | inactive: 0.053 | inactive: -0.273 | inactive: -0.033 | inactive: -0.046 | inactive: -0.035 | inactive: -0.063 | inactive: 0.203 | inactive: 0.02 | inactive: 0.239 | inactive: 0.24 | inactive: 0.033 | – |
| DGKE (UniProt P52429) | inactive: 0.085 | inactive: -0.151 | – | inactive: 0.006 | inactive: -0.031 | inactive: 0.263 | – | inactive: 0.015 | inactive: -0.061 | inactive: -0.039 | inactive: -0.039 | inactive: -0.361 | inactive: -0.012 | – | – | inactive: -0.245 | – | inactive: -0.06 | inactive: 0.188 | inactive: -0.114 |
| DDX41 (UniProt Q9UJV9) | inactive: 0.045 | inactive: -0.15 | inactive: -0.024 | inactive: -0.044 | inactive: -0.157 | inactive: 0.002 | inactive: -0.137 | inactive: 0.063 | inactive: -0.098 | inactive: -0.165 | – | inactive: 0.057 | inactive: -0.097 | inactive: -0.159 | inactive: -0.036 | inactive: -0.023 | inactive: 0.06 | – | inactive: -0.051 | inactive: 0.039 |
| DHX37 (UniProt Q8IY37) | inactive: 0.134 | inactive: -0.109 | inactive: -0.291 | inactive: 0.011 | inactive: 0.193 | – | – | inactive: -0.008 | – | – | – | – | inactive: -0.165 | – | inactive: -0.024 | inactive: -0.051 | – | – | – | – |
| DMXL1 (UniProt Q9Y485) | inactive: 0.059 | inactive: 0.071 | inactive: -0.006 | inactive: 0.006 | inactive: 0.068 | inactive: -0.001 | inactive: 0.024 | inactive: -0.02 | inactive: 0.019 | inactive: 0.034 | inactive: -0.005 | inactive: 0.002 | inactive: -0.035 | inactive: 0.028 | inactive: -0.085 | inactive: -0.231 | inactive: 0.019 | inactive: 0.042 | inactive: 0.069 | – |
| DENND10 (UniProt Q8TCE6) | inactive: -0.01 | inactive: -0.005 | inactive: -0.049 | inactive: -0.08 | inactive: -0.051 | inactive: 0.018 | inactive: 0 | inactive: -0.04 | inactive: 0.063 | inactive: 0.083 | – | inactive: 0.037 | inactive: 0 | inactive: -0.003 | inactive: -0.025 | inactive: -0.119 | inactive: 0.016 | – | inactive: -0.185 | – |
| DHRS13 (UniProt Q6UX07) | inactive: 0.014 | inactive: 0.043 | – | inactive: -0.006 | inactive: 0.037 | – | inactive: 0.073 | inactive: 0.047 | inactive: -0.009 | inactive: 0.065 | inactive: -0.275 | – | inactive: -0.051 | inactive: 0.035 | – | inactive: -0.007 | inactive: 0.144 | inactive: 0.224 | inactive: -0.085 | – |
| DDX11 (UniProt Q96FC9) | inactive: 0.019 | inactive: -0.041 | inactive: 0.087 | inactive: 0.005 | inactive: 0.029 | inactive: 0.034 | inactive: 0.215 | inactive: -0.027 | inactive: 0.032 | inactive: 0.072 | inactive: 0.152 | inactive: 0.001 | inactive: -0.119 | inactive: -0.033 | inactive: -0.003 | inactive: 0.022 | inactive: 0.09 | inactive: -0.316 | inactive: 0.023 | – |
| DDAH1 (UniProt O94760) | inactive: 0.098 | inactive: 0.054 | – | inactive: 0.027 | inactive: 0.085 | inactive: -0.13 | – | inactive: -0.016 | inactive: 0.006 | inactive: -0.193 | – | inactive: -0.062 | inactive: 0.03 | – | – | inactive: 0.05 | – | – | inactive: 0.096 | inactive: -0.019 |

Reformatted bar-delimited: part of the list above.
Target | log2 fold change [1] | log2 fold change [2] | log2 fold change [3] | log2 fold change [4] | log2 fold change [5] | log2 fold change [6] | log2 fold change [7] | log2 fold change [8] | log2 fold change [9] | log2 fold change [10] | log2 fold change [11] | log2 fold change [12] | log2 fold change [13] | log2 fold change [14] | log2 fold change [15] | log2 fold change [16] | log2 fold change [17] | log2 fold change [18] | log2 fold change [19] | log2 fold change [20]
DDX5 (UniProt P17844) | inactive: 0.13 | inactive: 0.101 | inactive: 0.072 | inactive: 0 | inactive: -0.003 | inactive: -0.046 | inactive: 0.059 | inactive: -0.032 | inactive: -0.061 | inactive: -0.127 | inactive: -0.114 | inactive: 0.002 | active: -0.358 | inactive: -0.024 | inactive: -0.189 | inactive: -0.12 | inactive: 0.069 | inactive: 0.017 | inactive: 0.072 | –
DMXL1 (UniProt Q9Y485) | inactive: 0.059 | inactive: 0.071 | inactive: -0.006 | inactive: 0.006 | inactive: 0.068 | inactive: -0.001 | inactive: 0.024 | inactive: -0.02 | inactive: 0.019 | inactive: 0.034 | inactive: -0.005 | inactive: 0.002 | inactive: -0.035 | inactive: 0.028 | inactive: -0.085 | inactive: -0.231 | inactive: 0.019 | inactive: 0.042 | inactive: 0.069 | –
